Experimental data published in patent US20040043959A1, “Combination therapies for treating methylthioadenosine phosphorylase deficient cells” (priority 2002, published 2004).
At least one compound was matched to its structure with a doubt left.

System: MTAP-deficient BxPC-3
Assay: colony formation cytotoxicity, 6 h drug exposure
Assay type: cell-based, human
Settings: Compound 7 with 50 μM anti-toxicity agent, FIG. 5b
Description: Cytoxicity data was collected using BxPC-3, PANC-1 and HT-1080 cells which were cultured in Iscove's medium supplemented with 10% dialyzed, horse serum, 5% nonessential amino acids and 5% sodium pyruvate.
Mid-log-phase cells were trypsinized and placed in 60 mm tissue culture dishes at 200 or 250 cells per dish. Cells from each cell line were left to attach for 4 hours and then were treated with Compound 7, with or without MTA or dcSAMe, in 5-fold serial dilutions for 6 or 24 hours. For data shown in FIGS. 5a and 5b, cells were exposed to drug(s) for 6 hours only. For data shown in FIG. 6, cells were exposed to Compound 7 for 24 hours and to MTA continuously for the duration of colony growth (i.e. 24 hours and thereafter). Cells were next washed with PBS, and then fixed and stained with 1% w/v crystal violet in 25% methanol (Sigma, St. Louis, Mo.). After washing the dishes 2-3 times. with deionized water, the colonies were counted. Triplicate dishes were used for each drug concentration.

## CSC[C@H]1O[C@@H](n2cnc3c(N)ncnc32)[C@H](O)[C@@H]1O [MTA, methylthioadenosine]
  effect on cell survival: did not increase cell survival
